Results are given in words; binding and its absence hold for the method and conditions named. Binding seen in cells or lysates may run through a third protein. Where a sequence is shown, tags or fusion partners need not be part of it.
Tests used:
[1] = target: Flag-tagged Nix (UniProt O60238); experiment: co-IP; 293T cells co-transfected with HA-tagged SHIP1 constructs and Flag-tagged partners; IP using anti-Flag beads and immunoblot with anti-HA (Fig. 3C, 5A; also Fig. 3H, 3I, S3A, S5A); Flag-IRF3 with HA-SHIP1 also in NDP52 KO 293T cells, where the interaction was reduced (Fig. 5J)
[2] = target: mitochondrial antiviral-signaling protein (MAVS) (UniProt Q7Z434); experiment: as above

Amino acid sequences for entries named in this document (tags omitted).
UniProt O60238: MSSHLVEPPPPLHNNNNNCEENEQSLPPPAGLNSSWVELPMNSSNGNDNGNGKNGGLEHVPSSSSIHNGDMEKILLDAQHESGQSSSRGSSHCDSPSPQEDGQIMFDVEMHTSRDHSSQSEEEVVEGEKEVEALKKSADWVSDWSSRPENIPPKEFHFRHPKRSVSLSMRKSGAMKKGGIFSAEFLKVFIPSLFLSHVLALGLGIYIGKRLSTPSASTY
UniProt Q7Z434: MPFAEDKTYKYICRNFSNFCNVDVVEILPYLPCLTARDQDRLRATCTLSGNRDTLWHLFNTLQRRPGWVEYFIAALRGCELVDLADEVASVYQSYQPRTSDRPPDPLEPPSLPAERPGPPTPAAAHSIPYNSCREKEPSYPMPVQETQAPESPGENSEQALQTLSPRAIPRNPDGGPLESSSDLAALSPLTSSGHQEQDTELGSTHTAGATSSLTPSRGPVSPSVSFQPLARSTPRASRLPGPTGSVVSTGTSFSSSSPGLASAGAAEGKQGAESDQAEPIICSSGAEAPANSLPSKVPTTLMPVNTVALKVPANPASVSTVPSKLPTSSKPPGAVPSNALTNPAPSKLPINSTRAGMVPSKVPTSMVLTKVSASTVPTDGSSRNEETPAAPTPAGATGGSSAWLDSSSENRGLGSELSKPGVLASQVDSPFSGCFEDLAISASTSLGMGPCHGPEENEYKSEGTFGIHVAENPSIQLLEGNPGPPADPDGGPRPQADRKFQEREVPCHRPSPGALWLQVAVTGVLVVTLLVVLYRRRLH

binding [1]: no binding
binding [2]: no binding
B1: HA-tagged SHIP1 (Src homology 2 containing inositol phosphatase 1), full length (protein, UniProt Q92835 1-1189)
chain: MVPCWNHGNITRSKAEELLSRTGKDGSFLVRASESISRAYALCVLYRNCVYTYRILPNEDDKFTVQASEGVSMRFFTKLDQLIEFYKKENMGLVTHLQYPVPLEEEDTGDDPEEDTVESVVSPPELPPRNIPLTASSCEAKEVPFSNENPRATETSRPSLSETLFQRLQSMDTSGLPEEHLKAIQDYLSTQLAQDSEFVKTGSSSLPHLKKLTTLLCKELYGEVIRTLPSLESLQRLFDQQLSPGLRPRPQVPGEANPINMVSKLSQLTSLLSSIEDKVKALLHEGPESPHRPSLIPPVTFEVKAESLGIPQKMQLKVDVESGKLIIKKSKDGSEDKFYSHKKILQLIKSQKFLNKLVILVETEKEKILRKEYVFADSKKREGFCQLLQQMKNKHSEQPEPDMITIFIGTWNMGNAPPPKKITSWFLSKGQGKTRDDSADYIPHDIYVIGTQEDPLSEKEWLEILKHSLQEITSVTFKTVAIHTLWNIRIVVLAKPEHENRISHICTDNVKTGIANTLGNKGAVGVSFMFNGTSLGFVNSHLTSGSEKKLRRNQNYMNILRFLALGDKKLSPFNITHRFTHLFWFGDLNYRVDLPTWEAETIIQKIKQQQYADLLSHDQLLTERREQKVFLHFEEEEITFAPTYRFERLTRDKYAYTKQKATGMKYNLPSWCDRVLWKSYPLVHVVCQSYGSTSDIMTSDHSPVFATFEAGVTSQFVSKNGPGTVDSQGQIEFLRCYATLKTKSQTKFYLEFHSSCLESFVKSQEGENEEGSEGELVVKFGETLPKLKPIISDPEYLLDQHILISIKSSDSDESYGEGCIALRLEATETQLPIYTPLTHHGELTGHFQGEIKLQTSQGKTREKLYDFVKTERDESSGPKTLKSLTSHDPMKQWEVTSRAPPCSGSSITEIINPNYMGVGPFGPPMPLHVKQTLSPDQQPTAWSYDQPPKDSPLGPCRGESPPTPPGQPPISPKKFLPSTANRGLPPRTQESRPSDLGKNAGDTLPQEDLPLTKPEMFENPLYGSLSSFPKPAPRKDQESPKMPRKEPPPCPEPGILSPSIVLTKAQEADRGEGPGKQVPAPRLRSFTCSSSAEGRAAGGDKSQGKPKTPVSSQAPVPAKRPIKPSRSEINQQTPPTPTPRPPLPVKSPAVLHLQHSKGRDYRDNTELPHHGKHRPEEGPPGPLGRTAMQ

Reference: publication PMC10470592
